Experiment [1] addresses T1, Cavin-1-WT (full length of Cavin-1) in a Fluoppi vector (human) (UniProt Q6NZI2).
T1 sequence (looked up): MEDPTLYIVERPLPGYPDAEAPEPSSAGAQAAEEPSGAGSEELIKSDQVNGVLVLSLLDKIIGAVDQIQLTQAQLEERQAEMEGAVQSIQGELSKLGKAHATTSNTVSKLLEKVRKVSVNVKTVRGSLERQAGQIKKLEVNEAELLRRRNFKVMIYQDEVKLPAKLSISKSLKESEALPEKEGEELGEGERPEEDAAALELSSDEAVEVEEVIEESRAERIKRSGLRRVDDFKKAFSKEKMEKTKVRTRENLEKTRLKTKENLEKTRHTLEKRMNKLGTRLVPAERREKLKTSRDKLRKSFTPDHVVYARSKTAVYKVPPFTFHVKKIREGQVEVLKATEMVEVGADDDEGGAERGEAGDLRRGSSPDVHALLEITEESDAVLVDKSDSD
The experiment can be described thus: Fluoppi cell staining, legend of FIG. 9(4).

Amino acid sequences for entries named in this document (tags omitted). A change or cut given only in a name is not applied to a line headed by its entry.
UniProt Q01973: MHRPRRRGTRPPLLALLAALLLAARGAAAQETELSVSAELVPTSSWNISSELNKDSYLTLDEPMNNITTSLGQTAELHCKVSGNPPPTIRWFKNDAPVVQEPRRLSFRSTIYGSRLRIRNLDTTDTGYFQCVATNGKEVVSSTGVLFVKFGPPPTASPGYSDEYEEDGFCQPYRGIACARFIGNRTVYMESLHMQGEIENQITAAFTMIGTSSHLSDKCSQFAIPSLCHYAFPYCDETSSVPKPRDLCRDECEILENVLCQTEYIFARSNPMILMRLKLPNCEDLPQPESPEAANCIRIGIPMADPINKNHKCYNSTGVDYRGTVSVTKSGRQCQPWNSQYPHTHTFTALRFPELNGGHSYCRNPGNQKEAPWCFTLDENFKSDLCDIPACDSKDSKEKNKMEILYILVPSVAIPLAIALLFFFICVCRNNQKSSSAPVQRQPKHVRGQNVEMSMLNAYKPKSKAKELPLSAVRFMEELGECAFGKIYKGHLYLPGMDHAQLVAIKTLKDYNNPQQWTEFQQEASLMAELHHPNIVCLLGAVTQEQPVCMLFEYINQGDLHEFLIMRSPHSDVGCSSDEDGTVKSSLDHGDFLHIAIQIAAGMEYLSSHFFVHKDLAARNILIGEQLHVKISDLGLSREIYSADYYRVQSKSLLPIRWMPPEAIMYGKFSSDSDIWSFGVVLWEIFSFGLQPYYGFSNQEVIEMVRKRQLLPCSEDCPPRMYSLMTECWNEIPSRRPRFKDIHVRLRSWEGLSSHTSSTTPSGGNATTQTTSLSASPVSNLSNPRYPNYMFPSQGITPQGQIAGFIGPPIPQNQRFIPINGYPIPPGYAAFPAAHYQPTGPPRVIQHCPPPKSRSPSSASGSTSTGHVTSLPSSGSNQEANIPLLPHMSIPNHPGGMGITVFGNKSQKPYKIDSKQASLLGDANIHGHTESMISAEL

Experiment [2] addresses T1, Cavin-1-WT (full length of Cavin-1) in a Fluoppi vector (human). The experiment can be described thus: Fluoppi image-based protein-protein interaction analysis in HeLa cells.
Experiment [3] has the same target. The experiment can be described thus: Fluoppi cell staining, legend of FIG. 9(3).

No constants are given. Whether binding was seen depends on the method and setting. Binding calls can cover weak binding; strength is not graded here.

As for “ROR1-TK2+TK3 (region from amino acid 564 to amino acid 746 of ROR1) (from UniProt Q01973)”, the binding result in experiment [1] and in experiment [2] was “binds” in each case.
As for “ROR1-ICD (intracellular region of ROR1, from amino acid 428 to amino acid 937) (from UniProt Q01973)”, the binding entry in experiment [2] and in experiment [3] was “binds” each time.

The record behind these values is patent US20170315126A1, “METHOD FOR SCREENING COMPOUND SPECIFICALLY SUPPRESSING FORMATION OF CAVEOLAE OF CANCER CELLS, SCREENING KIT, VECTOR AND TRANSFORMANT TO BE USED IN KIT, AND METHOD FOR SELECTING PATIENT FOR WHOM MOLECULARLY TARGETED DRUG IS INDICATED” (NATIONAL UNIVERSITY CORPORATION NAGOYA INSTITUTE OF …, priority 2014, published 2017).
